# Measured values reported in patent US8044198B2, “Sirtuin modulating compounds” (Sirtris Pharmaceuticals, Inc., priority 2005, dated 2011).
# Sequences of proteins named here, by UniProt entry; tags and fusion partners are left off.
# UniProt Q96EB6, whole entry: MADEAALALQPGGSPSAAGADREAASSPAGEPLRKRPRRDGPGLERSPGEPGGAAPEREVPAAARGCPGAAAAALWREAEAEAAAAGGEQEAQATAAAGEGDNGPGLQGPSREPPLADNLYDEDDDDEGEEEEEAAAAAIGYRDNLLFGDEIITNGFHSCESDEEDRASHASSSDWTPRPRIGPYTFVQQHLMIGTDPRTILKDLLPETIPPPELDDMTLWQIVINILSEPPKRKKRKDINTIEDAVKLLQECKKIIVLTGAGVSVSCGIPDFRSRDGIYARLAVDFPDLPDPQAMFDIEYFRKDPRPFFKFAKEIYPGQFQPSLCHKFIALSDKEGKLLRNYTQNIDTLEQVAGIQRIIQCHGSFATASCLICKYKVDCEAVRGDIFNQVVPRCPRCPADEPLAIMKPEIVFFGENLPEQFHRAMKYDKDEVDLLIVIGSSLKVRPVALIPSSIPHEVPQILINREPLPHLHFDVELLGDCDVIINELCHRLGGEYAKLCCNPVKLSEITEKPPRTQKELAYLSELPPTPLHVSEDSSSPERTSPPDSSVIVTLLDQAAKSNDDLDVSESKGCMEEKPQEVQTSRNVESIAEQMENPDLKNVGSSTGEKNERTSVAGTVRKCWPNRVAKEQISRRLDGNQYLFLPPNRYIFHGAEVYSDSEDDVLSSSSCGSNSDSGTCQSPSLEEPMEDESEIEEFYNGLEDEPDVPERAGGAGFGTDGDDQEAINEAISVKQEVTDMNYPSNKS
# The match of structure and compound is tentative.
# Target: SIRT1 (Homo sapiens, UniProt Q96EB6)
# Assay: SIRT1 mass spectrometry (MS) based deacetylation assay; on FOLD ACT. MS: test concentration or dose not given here
# Format: biochemical
structure (smiles),measurement,setting,value
COc1cc(C(=O)Nc2cccc(-c3nc4ncccc4o3)c2)ccc1CN1CCOCC1,FOLD ACT. MS,"fold activation of SIRT1, mass spectrometry assay",B (B (Fold Activation <250%))
same,EC50,"read-out: ED50 MS ASSAY, SIRT1 activation, mass spectrometry assay",< 5 µM
